Results are given in words; binding and its absence hold for the method and conditions named. Some entries that bind do so weakly or less than the wild type. Values belong to the molecule of their own block, whether it stands above or below them.
Experiments:
[1] = target: Grb4 (115-257) containing the second and third SH3 domains (human) (UniProt O43639); experiment: NMR HSQC titration
[2] = target: third Grb4 SH3 domain, Grb4 residues 199-257 (human) (UniProt O43639); experiment: NMR HSQC titration
[3] = target: Grb4 (115-257) containing the second and third SH3 domains (human) (UniProt O43639); experiment: 1H-15N NMR HSQC titration, four-fold excess of unlabelled Nogo-A (1-200) on 15N-labelled Grb4 (115-257)
[4] = target: Grb4 (115-257) containing the second and third SH3 domains (human) (UniProt O43639); experiment: ITC
[5] = target: third Grb4 SH3 domain, Grb4 residues 199-257 (human) (UniProt O43639); experiment: ITC

Chains of the proteins cited; added tags and fusions are not shown. Residues count along the entry.
Grb4 (115-257) containing the second and third SH3 domains (O43639, residues 115-257): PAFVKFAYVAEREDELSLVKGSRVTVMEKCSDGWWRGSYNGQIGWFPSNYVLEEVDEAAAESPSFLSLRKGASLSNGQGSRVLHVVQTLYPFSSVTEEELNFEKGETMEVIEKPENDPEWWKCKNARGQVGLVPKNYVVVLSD
third Grb4 SH3 domain, Grb4 residues 199-257 (O43639, residues 199-257): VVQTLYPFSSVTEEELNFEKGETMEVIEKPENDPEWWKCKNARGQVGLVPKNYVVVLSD

binding [1]: binds
binding [2]: binds
binding [3]: binds
Molecule: Nogo-A (1-200) (from UniProt Q9NQC3 1-200)

binding [4]: binds
binding [5]: binds
binding [1]: binds
binding [2]: binds
B1: Nogo-A (32-200) (other)
chain: EDEEEEEEEEEEDEDEDLEELEVLERKPAAGLSAAPVPTAPAAGAPLMDFGNDFVPPAPRGPLPAAPPVAPERQPSWDPSPVSSTVPAPSPLSAAAVSPSKLPEDDEPPARPPPPPPASVSPQAEPVWTPPAPAPAAPPSTPAAPKRRGSSGSVDETLFALPAASEPVI
notes: Recombinant, cloned into pET32a and expressed in E. coli

From patent US20090137484A1, “Neuronal Network-Interacting Peptide” (NATIONAL UNIVERSITY OF SINGAPORE, priority 2004, published 2009)
